Some of the results follow. This data set is noisy: repeats of one test often differ as much as different tests do.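 A first-round screen of about ten thousand compounds sought those raising reporter output, using human embryonic kidney cells briefly transfected with a plasmid carrying a Renilla luciferase gene driven by the HSV-TK promoter.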
System: HEK 293FT
Experiment: log relative Renilla luciferase luminescence (reporter expression vs reference, reference not stated) (log (base not stated)); higher = higher recombinant reporter expression
Conditions: 10 µM; time after transfection 48 h
Protocol: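 HEK 293FT cells transiently transfected with pRL-TK (Renilla luciferase) were treated with compounds at 10 uM and luminescence was read about 42 h later. Values are log relative Renilla luminescence (log base and reference not stated). Single-pass screen; ICCB Known Bioactives library.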

Going from `O=c1[nH]c2ccccc2n1C1CCN(CCCC(c2ccc(F)cc2)c2ccc(F)cc2)CC1` [Pimozide] to `Cc1c(C(=O)c2cccc3ccccc23)c2cccc3c2n1[C@H](CN1CCOCC1)CO3`, the log rises from -0.49 to -0.167.

First: NCCc1c[nH]c2ccc(O)cc12 [Serotonin]
Second: N#CC(C#N)=Cc1ccc(O)cc1 [Tyrphostin-8]
The log of the first is lower: 0.0238 for the first, 0.255 for the second.

Compared with `C[C@@H]1C[C@@H]([C@H](O)CC2CC(=O)NC(=O)C2)C(=O)[C@@H](C)C1` [Cycloheximide], `CCOC(=O)CN1C(=O)CC(C[C@@H](O)C2C[C@@H](C)C[C@H](C)C2=O)CC1=O` (stereo not given in full) [Cycloheximide-N-ethylethanoate] is higher in log: -1.75 for the first, -0.242 for the second.

First: CC[C@@]1(O)C(=O)OCc2c1cc1n(c2=O)Cc2cc3ccccc3nc2-1 [Camptothecin]
Second: CN[C@@H]1C[C@H]2O[C@@](C)([C@@H]1OC)n1c3ccccc3c3c4c(c5c6ccccc6n2c5c31)C(=O)NC4 [Staurosporine]
The log of the first is higher: -1.34 for the first, -1.56 for the second.

Going from `CC1=C2C[C@H]3[C@@H](CC=C4C[C@@H](O)CC[C@@]43C)[C@@H]2CC[C@]12O[C@@H]1C[C@H](C)CN[C@H]1[C@H]2C` [Cyclopamine] to `CC[C@@]1([C@@H]2O[C@@H]([C@H]3O[C@@](O)(CO)[C@H](C)C[C@@H]3C)C[C@@H]2C)CC[C@H]([C@]2(C)CC[C@]3(C[C@H](O)[C@@H](C)[C@@H]([C@@H](C)[C@@H](OC)[C@H](C)C(=O)O)O3)O2)O1` [Monensin], the log falls from 0.0491 to -0.479.

`CCCCCCCCCCCCCCCCOCC(COP(=O)([O-])OCC[N+](C)(C)C)OC(C)=O` (stereo not drawn) [Enantio-PAF C16] and `CCCCCCCCCCCCCCCCOC[C@H](COP(=O)([O-])OCC[N+](C)(C)C)OC(C)=O` are within 0.2 log units of each other in log: -0.0865 for the first, -0.129 for the second.

`COc1ccc(C[C@H]2NC[C@H](O)[C@H]2OC(C)=O)cc1` [Anisomycin] and `CC1(C)C(C=C(Cl)Cl)C1C(=O)OC(C#N)c1cccc(Oc2ccccc2)c1` (stereo not given) [Cypermethrin] are within 0.2 log units of each other in log: -0.345 for the first, -0.158 for the second.

Going from `CC(C)NCC(O)c1ccc(N)c(C#N)c1` (stereo not given) [Cimaterol] to `N#C/C(=C\c1ccc(O)c(O)c1)C(N)=S` [AG213 (Tyrphostin 47)], the log rises from -0.265 to 0.0955.

`CCCCC/C=C\C/C=C\C/C=C\C/C=C\CCCC(=O)NCCO` [Anandamide (20:3,n-6)] and `CCCCC/C=C\C/C=C\C/C=C\C/C=C\CCCC(=O)NCC(=O)O` [N-Arachidonoylglycine] are within 0.2 log units of each other in log: 0.142 for the first, 0.046 for the second.

`CCCCCc1cc(O)c2c(c1)OC(C)(C)C1CCC(C(=O)O)=CC21` (stereo not given) [Tetrahydrocannabinol-7-oic acid] and `CCCC[C@H]1C(=O)O[C@H](C)[C@H](NC(=O)c2cccc(NC=O)c2OC)C(=O)O[C@@H](C)[C@@H]1OC(=O)CC(C)C` [2-Methoxyantimycin A3] are within 0.2 log units of each other in log: -0.00642 for the first, -0.136 for the second.

Compared with `CCCCC/C=C\C/C=C\C/C=C\C/C=C\CCCC(=O)NCc1ccc(O)c(OC)c1` [Arvanil], `CCCCC/C=C\C/C=C\C/C=C\C/C=C\CCCC(=O)NCCO` [Anandamide (18:2,n-6)] is higher in log: -0.121 for the first, 0.216 for the second.

Compared with `CCCCC/C=C\C/C=C\C/C=C\C=C\[C@H](CCCC(=O)O)OO`, `CCCCC/C=C\C[C@@H](/C=C/C=C\C/C=C\CCCC(=O)O)OO` is lower in log: 0.0437 for the first, -1.5 for the second.

`CC(C)[C@@H]1NC(=O)[C@H](C)OC(=O)[C@@H](C(C)C)NC(=O)[C@@H](C(C)C)OC(=O)[C@H](C(C)C)NC(=O)[C@H](C)OC(=O)[C@@H](C(C)C)NC(=O)[C@@H](C(C)C)OC(=O)[C@H](C(C)C)NC(=O)[C@H](C)OC(=O)[C@@H](C(C)C)NC(=O)[C@@H](C(C)C)OC1=O` [Valinomycin] and `CC[C@@H]1/C=C/C=C/C[C@H](C)[C@H](O)[C@](C)(O)C(=O)[C@H](C)[C@@H](O)[C@H](C)C(=O)[C@H](C)[C@@H](O)[C@H](C)/C=C/C(=O)O[C@H]2[C@@H](C)[C@@H](CC1)O[C@@]1(CC[C@@H](C)[C@@H](C[C@H](C)O)O1)[C@@H]2C` [Oligomycin A] are within 0.2 log units of each other in log: -0.64 for the first, -0.552 for the second.

Going from `O=C1CSC(c2ccccc2Cl)c2cc(Cl)ccc2N1` (stereo not given) to `c1ccc(C2CC2)c(OCC2=NCCN2)c1` [Cirazoline], the log rises from -0.291 to -0.0772.

Compared with `C[C@H](CCC(=O)O)C[C@H](C)C[C@H](C)C(=O)/C=C(\O)[C@H](C)C[C@H](C)C/C=C/[C@@H](C)[C@@H](O)[C@@H](C)[C@@H](O)C[C@@H]1CC[C@@](C)([C@H]2CC[C@@](C)([C@@H](C)O)O2)O1` [Ionomycin], `CO/C1=C\C(C)=C\[C@@H](C)[C@@H](O)[C@@H](C)C/C(C)=C/C=C/[C@H](OC)[C@@H]([C@@H](C)[C@@H](O)[C@H](C)[C@@]2(O)C[C@@H](O)[C@H](C)[C@@H](C(C)C)O2)OC1=O` [Bafilomycin A1] is lower in log: 0.267 for the first, -0.474 for the second.

Compared with `COC1=CC(=O)O[C@@H](/C=C/c2ccccc2)C1` (racemic) [Kavain (±)], `CC(=O)c1c(O)c(C)c(O)c(Cc2c(O)c3c(c(C(=O)/C=C/c4ccccc4)c2O)OC(C)(C)C=C3)c1O` [Rottlerin] is lower in log: -0.109 for the first, -0.705 for the second.

`CCCCC/C=C\C=C\[C@H](CCCCCCCC(=O)O)OO` and `CCCCC/C=C\C/C=C\C/C=C\C/C=C\CCCC(=O)NCCO` [Anandamide (20:4, n-6)] are within 0.2 log units of each other in log: 0.0521 for the first, -0.065 for the second.

Going from `O[C@H]1[C@H]2[C@H](O)CCCN2C[C@H]1O` [Swainsonine] to `C[C@@]1(CO)[C@H](O)CC[C@@]2(C)[C@H]1CC[C@H]1C[C@@H]3C[C@@]12CC[C@]3(O)CO` [Aphidicolin], the log falls from -0.038 to -0.25.

Compared with `O=C1C=CC(=O)c2c(O)cccc21` [Juglone], `N#CC(C#N)=Cc1ccc([N+](=O)[O-])c(O)c1` [Tyrphostin AG-126] is lower in log: 0.284 for the first, -0.0324 for the second.

`C[C@H](N)C(=O)N[C@@H](C)C(=O)N[C@@H](Cc1ccccc1)C(=O)CCl` and `CNc1ccc2oc(C[C@H]3O[C@@]4(CC[C@H]3C)O[C@H]([C@H](C)C(=O)c3ccc[nH]3)[C@H](C)C[C@H]4C)nc2c1C(=O)O` are within 0.2 log units of each other in log: 0.163 for the first, -0.0297 for the second.
